# This is one part of the list. These are raw signals, not scaled to a control.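 Primary screen: polymyxin B was added at a level permeabilizing Salmonella outer membranes while sparing inner membranes. DMSO wells, both with and without polymyxin B, established maximum growth. Plate-to-plate variation meant each plate was ranked on its own, and the lowest-OD600 compounds were selected as hits.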
# System: Salmonella enterica serovar Typhimurium SL1344
# Experiment: bacterial growth OD600 after 18 h with compound and polymyxin B; higher = more bacterial growth (less inhibition)
# Conditions: 50 µM, Mueller-Hinton broth
Compound,bacterial growth OD600 (polymyxin B 0.75 µg/mL),bacterial growth OD600 (polymyxin B 1 µg/mL)
Cc1ccc(CCNC(=O)C2CCCN(C3CCN(C(=O)C4CC4)CC3)C2)cc1 (configuration not stated),0.911,–
COCCCN1C(=O)CC(CC(=O)N(C)Cc2nonc2C)(c2ccccc2Cl)C1=O (configuration not stated),0.768,–
CCOc1ccc(CN2CCN(Cc3ccc4nonc4c3)CC2CCO)cc1 (configuration not stated),–,0.939
O=C(CC(c1ccccc1)c1ccccc1Cl)N1CCC(CO)CC1 (configuration not stated),–,0.69
CCn1ccnc1CN1CCCC(CNC(=O)c2cccc(C(F)(F)F)c2)C1 (configuration not stated),0.831,–
COC(=O)c1cc(CNC(=O)Cc2c(F)cccc2Cl)cc(NC(=O)c2ccco2)c1,0.813,–
COc1ccc(S(=O)(=O)N2CCCC(CNC(=O)c3ccco3)C2)c(OC)c1 (configuration not stated),0.884,–
CC(Oc1ccccc1)C(=O)N1CCC(CCC(=O)Nc2ccccc2)CC1 (configuration not stated),–,0.926
COc1ccc(C(=O)N(C)CC2CCCN(CCc3ccccc3OC)C2)cc1 (configuration not stated),–,0.725
CN(C)c1ncccc1CNC(=O)CN1CCOc2ccccc2C1,–,0.858
Cn1nccc1C(=O)N1CCCC1C(=O)Nc1cccc(-n2cccn2)c1 (configuration not stated),–,0.947
CC(c1ccc2c(c1)OCCO2)N(C)C(=O)c1cc(COc2ccccc2)[nH]n1 (configuration not stated),–,0.652
CSc1cccc(NC(=O)N2CCC(CCC(=O)Nc3ccccc3)CC2)c1,–,0.905
COc1cccc(-c2ccc(NC(=O)C3CCCN(C(=O)c4c[nH]nc4C)C3)cc2)c1 (configuration not stated),–,0.942
CC(=O)N1CCC(NC(C)c2cnn(-c3ccc(F)cc3F)c2C)CC1 (configuration not stated),–,1.18
COC(=O)C1CCCCN1Cc1nc(-c2ccc(C)cc2)oc1C (configuration not stated),0.96,–

Compound,bacterial growth OD600 (polymyxin B 0.75 µg/mL),bacterial growth OD600 (polymyxin B 1 µg/mL)
c1ccc(CCC2CN(Cc3ccc4nonc4c3)CCO2)cc1 (configuration not stated),0.004,–
COc1cccc(CCC2CCCN(C(=O)c3ccoc3C)C2)c1 (configuration not stated),0.092,–
COc1ccc(F)c(-c2nc(CN(C)Cc3cccc4ncccc34)c(C)o2)c1,–,0.671
COc1ccccc1CN1CCN(Cc2ccc(OC)c(C)c2C)C(CCO)C1 (configuration not stated),–,0.828
CCN(CCn1cccn1)C(=O)c1ccc(OC2CCN(C(=O)CCOC)CC2)cc1,–,0.771
Cc1ccsc1C(=O)NCC1Cc2cc(F)cc(-c3ccccn3)c2O1 (configuration not stated),0.564,–
COc1ccc(NC(=O)CCC2CCCN(C(=O)C3=NN(C)C(=O)CC3)C2)cc1Cl (configuration not stated),–,1.23
CC(C)=CC(=O)N1CCCC(N2CCN(c3ccccc3C)CC2)C1 (configuration not stated),–,0.857
COc1cc(CN(C(=O)c2ccccc2F)[C@H]2CCCCNC2=O)ccc1OCCc1scnc1C,0.97,–
O=C(c1cn(CC2COc3ccccc3O2)nn1)N1CCC2(C=Cc3ccccc32)CC1 (configuration not stated),–,0.008
CSCC(=O)N1CCC2(CCCN(Cc3ccccc3F)C2=O)C1 (configuration not stated),–,0.976
COc1ccc(C(=O)NC2CC2)cc1OC1CCN(CC2CC2)CC1,–,1.11
COCC(=O)Nc1cc(C(=O)N2CCC(c3ccccc3F)C2)cc2nc(-c3cccnc3)n(C)c12 (configuration not stated),0.797,–
CCCOC1CCCN(C(=O)c2cc(Cn3nc(C)cc3C)[nH]n2)C1 (configuration not stated),–,1.15
CCOC(=O)N1CCN(C(=O)c2ccc(N3CCC(NCCN4CCCCC4)CC3)cc2)CC1,0.829,–
CS(=O)(=O)NCc1cccnc1N1CCCCCCC1,–,0.928

# Pulled by structure from the entries so far:
Compound,bacterial growth OD600 (polymyxin B 0.75 µg/mL),bacterial growth OD600 (polymyxin B 1 µg/mL)
COc1ccc(F)c(-c2nc(CN(C)Cc3cccc4ncccc34)c(C)o2)c1,–,0.671
CCOC(=O)N1CCN(C(=O)c2ccc(N3CCC(NCCN4CCCCC4)CC3)cc2)CC1,0.829,–

# — the supplement of paper PMC12889115
